At least one structure is not confirmed: it was looked up by name or label, or the drawing left a doubt.
Test system: Sal-resistant mutants of E. coli D21f2tolC (rpoC / rpoB substitutions)
Experiment: Broth microdilution resistance / cross-resistance levels of spontaneous Sal-resistant mutants
Assay type: cell-based, Escherichia coli
Conditions: two mutants for rifampin, ten mutants for CBR703 (resistance levels <1 in Table 4)
Protocol: Isolation of Sal-Resistant Mutants: Spontaneous Sal-Resistant Mutants. E. coli D21f2tolC (6) was cultured to saturation in 5 ml LB broth (7) at 37° C., cultures were centrifuged, and cell pellets (˜3×10^9 cells) were re-suspended in 50 μl LB broth and plated on LB agar (7) containing 1.2 μg/ml Sal (a concentration four times the minimal concentration required to prevent growth of wild-type cells under these conditions), and incubated 24-48 h at 37° C. Sal-resistant mutants were identified by the ability to form colonies on this medium and were confirmed by re-streaking on the same medium.
Quantitation of Resistance to Sal. Resistance to Sal was quantified by performing broth microdilution assays. […] Diluted aliquots (2×10^4 cells in 98 μl LB broth; concentrations determined using OD600=1 for 10^9 cells) were dispensed into wells of a 96-well plate, were supplemented with 2 μl of a 2-fold dilution series of Sal in methanol (final concentrations of […], 0.390, 0.195, 0.0975, 0.0488, 0.0244, 0.0122, and 0.00609 μg/ml) or 2 μl of a solvent blank, and were incubated 16 h at 37° C. with shaking. […]
Quantitation of Cross-Resistance to Rifampin and CBR703. Cross-resistance levels were determined analogously to resistance levels, using 0.12-0.78 μg/ml of rifampin (Sigma, Inc.) and 0.39-25 μg/ml of CBR703 (Maybridge, Inc.).

With `ONC(=Nc1ccccc1)c1cccc(C(F)(F)F)c1` [CBR703] the “hypersensitivity of Sal-resistant mutants” value was 2-fold to >4-fold.

Reference: US9060970B2, “Bridge-helix cap: target and method for inhibition of bacterial RNA polymerase” (priority 2011, dated 2015)
